Experimental findings from PMC9533486 are described below.

Protein sequences, listed by entry. Tags and fused reporters are not part of them.
UniProt Q9Y297: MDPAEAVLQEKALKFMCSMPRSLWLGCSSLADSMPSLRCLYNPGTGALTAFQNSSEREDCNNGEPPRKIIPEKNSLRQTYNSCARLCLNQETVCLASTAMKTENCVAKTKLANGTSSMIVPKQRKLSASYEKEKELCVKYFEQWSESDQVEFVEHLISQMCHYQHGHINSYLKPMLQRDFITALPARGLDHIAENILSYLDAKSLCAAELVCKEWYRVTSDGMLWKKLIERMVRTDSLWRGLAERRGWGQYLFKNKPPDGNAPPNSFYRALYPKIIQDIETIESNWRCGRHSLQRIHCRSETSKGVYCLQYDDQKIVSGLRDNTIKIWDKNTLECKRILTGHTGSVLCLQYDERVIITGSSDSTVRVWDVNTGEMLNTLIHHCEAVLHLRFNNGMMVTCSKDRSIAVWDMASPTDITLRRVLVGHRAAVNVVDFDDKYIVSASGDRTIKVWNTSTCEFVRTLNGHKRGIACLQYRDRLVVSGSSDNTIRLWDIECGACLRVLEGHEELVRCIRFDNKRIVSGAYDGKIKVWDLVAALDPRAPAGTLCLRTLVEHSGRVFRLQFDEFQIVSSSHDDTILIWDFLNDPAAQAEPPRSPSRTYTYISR
UniProt P01106: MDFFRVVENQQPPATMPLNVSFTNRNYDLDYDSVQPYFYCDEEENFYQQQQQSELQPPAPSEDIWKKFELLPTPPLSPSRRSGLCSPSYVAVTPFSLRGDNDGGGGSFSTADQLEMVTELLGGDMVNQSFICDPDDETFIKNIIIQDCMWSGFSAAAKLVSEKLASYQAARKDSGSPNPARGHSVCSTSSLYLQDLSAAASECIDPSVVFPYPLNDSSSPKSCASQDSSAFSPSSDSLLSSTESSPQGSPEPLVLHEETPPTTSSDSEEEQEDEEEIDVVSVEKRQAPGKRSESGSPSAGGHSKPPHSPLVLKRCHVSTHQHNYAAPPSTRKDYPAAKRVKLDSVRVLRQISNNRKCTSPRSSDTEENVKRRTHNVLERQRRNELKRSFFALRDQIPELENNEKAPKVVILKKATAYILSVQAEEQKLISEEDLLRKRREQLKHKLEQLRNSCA

These are yes or no findings as the source states them, for the method shown. Binding seen in cells or lysates may run through a third protein. Here binding means that the protein was enriched with, or labelled near, the bait; the list need not be complete.

For the test, the target named is β-TrCP (Beta-transducin repeat containing E3 ubiquitin protein ligase) (human (endogenous in CNE2 and 5-8F)) (UniProt Q9Y297). In words: affinity purification with mass spectrometry; immunoprecipitation with β-TrCP antibody from CNE2 cells, followed by LC-MS/MS.

For the substance c-Myc (from UniProt P01106 1-454), the binding entry is recorded as “binds”.
